According to publication PMC12583727:
No constants are given. Whether binding was seen depends on the method and setting. Binding seen in cells or lysates may run through a third protein. These calls come from enrichment with a bait or labelling near it, and not all partners need be listed.

Sequences of proteins named here, by UniProt entry; tags and fusion partners are left off. A change or cut given only in a name is not applied to a line headed by its entry.
UniProt O15550: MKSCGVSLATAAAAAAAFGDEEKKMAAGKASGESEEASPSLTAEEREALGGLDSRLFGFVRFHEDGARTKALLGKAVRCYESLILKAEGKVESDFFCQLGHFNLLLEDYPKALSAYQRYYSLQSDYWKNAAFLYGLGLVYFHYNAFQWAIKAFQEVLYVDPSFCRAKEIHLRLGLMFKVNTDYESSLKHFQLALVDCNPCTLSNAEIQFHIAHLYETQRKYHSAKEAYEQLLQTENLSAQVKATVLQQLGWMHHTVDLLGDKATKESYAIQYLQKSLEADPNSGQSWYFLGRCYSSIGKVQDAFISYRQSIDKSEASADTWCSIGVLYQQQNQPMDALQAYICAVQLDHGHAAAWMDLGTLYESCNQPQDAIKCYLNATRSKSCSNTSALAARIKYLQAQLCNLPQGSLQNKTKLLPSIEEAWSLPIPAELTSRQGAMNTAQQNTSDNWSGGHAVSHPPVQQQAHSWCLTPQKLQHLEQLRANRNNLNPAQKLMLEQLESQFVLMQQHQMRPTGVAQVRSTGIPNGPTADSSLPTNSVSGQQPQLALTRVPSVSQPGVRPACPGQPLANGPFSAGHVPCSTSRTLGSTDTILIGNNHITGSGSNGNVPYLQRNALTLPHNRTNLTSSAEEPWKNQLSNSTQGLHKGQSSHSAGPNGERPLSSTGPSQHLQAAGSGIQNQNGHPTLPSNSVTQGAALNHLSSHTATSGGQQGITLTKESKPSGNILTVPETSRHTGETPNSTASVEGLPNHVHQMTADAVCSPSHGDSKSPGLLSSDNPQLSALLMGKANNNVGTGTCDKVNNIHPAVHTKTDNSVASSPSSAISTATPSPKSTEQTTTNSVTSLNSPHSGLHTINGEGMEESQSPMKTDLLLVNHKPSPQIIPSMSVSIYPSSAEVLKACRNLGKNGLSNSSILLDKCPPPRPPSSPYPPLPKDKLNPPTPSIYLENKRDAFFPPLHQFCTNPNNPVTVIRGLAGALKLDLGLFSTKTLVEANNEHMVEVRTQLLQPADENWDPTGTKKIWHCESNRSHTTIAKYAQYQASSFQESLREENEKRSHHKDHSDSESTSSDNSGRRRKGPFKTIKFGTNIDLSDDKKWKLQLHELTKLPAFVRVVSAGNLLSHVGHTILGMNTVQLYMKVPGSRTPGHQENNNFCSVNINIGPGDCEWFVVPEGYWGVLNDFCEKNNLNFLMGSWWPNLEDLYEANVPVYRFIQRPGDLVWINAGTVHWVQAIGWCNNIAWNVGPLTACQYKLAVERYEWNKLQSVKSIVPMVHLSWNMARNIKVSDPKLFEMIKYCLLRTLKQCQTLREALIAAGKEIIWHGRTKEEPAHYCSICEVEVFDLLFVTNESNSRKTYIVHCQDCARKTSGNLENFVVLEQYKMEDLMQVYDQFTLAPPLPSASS
UniProt P31947: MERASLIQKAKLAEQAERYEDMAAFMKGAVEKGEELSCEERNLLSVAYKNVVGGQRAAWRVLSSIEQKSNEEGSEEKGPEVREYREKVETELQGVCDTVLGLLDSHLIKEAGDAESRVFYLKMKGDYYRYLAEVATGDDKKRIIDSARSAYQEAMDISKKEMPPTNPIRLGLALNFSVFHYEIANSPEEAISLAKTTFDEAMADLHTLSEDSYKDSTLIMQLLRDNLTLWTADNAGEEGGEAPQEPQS

Target: KDM6A^S829D (phospho-mimic, exogenous) (UniProt O15550)
Assay: affinity purification with mass spectrometry; HEK293 cells expressing KDM6A phospho-mutants; precipitation with anti-KDM6A antibody, IgG controls; on-bead tryptic digestion, nanoLC-MS/MS; interactors: fold change > 2 and p < 0.05

binding: binds
Substance: Stratifin (SFN), endogenous (from UniProt P31947 1-248)
